About 250 (13%) of roughly 1,900 compounds were called active. Not shown: some 4% with an inconclusive outcome.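 The calls were made as follows: active = fitted curve reaches 40% rescue activity at or below the top valid dose, in every test run; inconclusive = test runs disagree, some active and some inactive; inactive = every run misses the threshold or moves the wrong way.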 The entries are a selection whose mix differs from that of the whole data set. Measured potencies and affinities stand elsewhere.

A short description of the test: rescue of simvastatin-induced ATP loss – cell-based, C2C12 myotubes, ATP luminescence, cherry pick, dose response (AID 624405).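 Also: myotubes are challenged with simvastatin at 10 µM to lower ATP.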 As to conditions: 48 h, scaled: DMSO wells 0, geranylgeraniol wells 100; at 19.5 µM (top of the series) unless noted.
`Cc1ccc(N(CN2CCCC2=O)C(=O)c2ccc(C)c(C)c2)cc1`: the rescue activity (ATP increase) was inactive: 29.9%.
Take `C[C@@H]1CN([C@H](C)CO)C(=O)c2cc(NC(=O)c3ccncc3)ccc2O[C@@H](C)CCCCO[C@@H]1CN(C)Cc1ccc(C(F)(F)F)cc1`: the rescue activity (ATP increase) is inactive: 11.1%.
To `C[C@@H]1CCCCO[C@H](CN(C)S(C)(=O)=O)[C@@H](C)CN([C@@H](C)CO)C(=O)c2cc(NS(=O)(=O)c3ccc(F)cc3)ccc2O1` belongs inactive: 19.6%; to `CCC1=C(c2ccc(C)cc2)S(=O)(=O)N=C1N1CCC(C(=O)NCCCN2CCCCC2C)CC1` (stereo unspecified), inactive: -20.1%.
In the case of `COc1cc(Br)c(-c2sc(Nc3ccccc3)n[n+]2-c2ccc(F)cc2)cc1OC`, the rescue activity (ATP increase) was inactive: 51.9%.
To `COc1ccc2oc(=O)cc(CN3CCN(Cc4ccc(OC)c(OC)c4OC)CC3)c2c1` belongs inactive: -43.4%; to `Cc1cccc(Cn2c(N3CCCCC3C)nc3c2c(=O)[nH]c(=O)n3C)c1` (stereo unspecified), inactive: 39.2%; to `CC(C)COc1cc(=O)[nH]c(SCC(C)C)n1`, inactive: -27.6%.
To `C[C@@H]1CCCCO[C@@H](CN(C)C(=O)Nc2cccc3ccccc23)[C@H](C)CN([C@H](C)CO)C(=O)c2cc(NS(=O)(=O)c3cccs3)ccc2O1` belongs inactive: 3.19%; to `CC(=O)N1CCN(c2nnnn2-c2ccccc2)CC1`, inactive: -24.2%.
To `COc1ccc(NC(=O)Nc2cccc3c2O[C@@H](CN(C)C(=O)Nc2cccc4ccccc24)[C@H](C)CN([C@@H](C)CO)C3=O)cc1` belongs inactive: -5.31%; to `S=C1N(c2ccccc2)C(c2ccccc2)N2CCCN12` (stereo unspecified), inactive: 27.2%.
For `C[C@H](CO)N1C[C@H](C)[C@@H](CN(C)Cc2ccccc2F)Oc2ncc(C3=CCCCC3)cc2C1=O`, the rescue activity (ATP increase) is inactive: -21.6%.
The same measure for `CCOc1ccc(-c2nc3n(c(=O)c2C#N)CCCS3)cc1`: inactive: -11.7%.
To `CSCc1c(C(=O)NC2CCCc3ccccc32)oc2ccccc12` (stereo unspecified) belongs inactive: 28.5%; to `COc1ccc(CC(=O)Nc2cc(C)on2)cc1OC`, inactive: 13.4%.
To `CCN(C(=O)c1nn(-c2ccc(OC)cc2)c(=O)c2c1c1ccccc1n2C)c1ccc(OC)cc1` belongs inactive: -12.7%.
Turning to `CN1C[C@H]2[C@@H](c3ccccc31)[C@H](CO)N2Cc1ccccc1Cl`, the rescue activity (ATP increase) is inactive: -13.7%.
To `Cc1noc(C)c1S(=O)(=O)Nc1ccc2c(c1)CC(=O)N([C@H](C)CO)C[C@H](C)[C@@H](CN(C)Cc1ccc(Cl)c(Cl)c1)O2` belongs inactive: 31.6%; to `Cc1onc(-c2ccncc2)c1C(=O)O`, inactive: -7.13%; to `C[C@@H]1CN([C@H](C)CO)C(=O)c2cc(NC(=O)Cc3cn(C)c4ccccc34)ccc2O[C@H]1CN(C)S(=O)(=O)c1cccs1`, inactive: 14.4%.
As to `COc1cccc(NC(=O)N(C)C[C@@H]2Oc3ncc(C#Cc4ccc(F)cc4)cc3C(=O)N([C@@H](C)CO)C[C@H]2C)c1`, the rescue activity (ATP increase) is inactive: 36.3%.
The same measure for `C[C@H](CO)N1C[C@H](C)[C@@H](CN(C)C(=O)NC2CCCCC2)OCCCC[C@H](C)Oc2ccc(NC(=O)Nc3cccc4ccccc34)cc2C1=O`: inactive: -1.07%; for `CCOC(=O)c1ccc2c(c1)nc(COc1ccc(OC)cc1)n2CC`: inactive: -4.99%.
To `COc1ccc(S(=O)(=O)Nc2ccc3c(c2)CC(=O)N([C@H](C)CO)C[C@@H](C)[C@H](CN(C)Cc2ccccc2)O3)cc1` belongs inactive: 25.7% [at 21 µM]; to `C/C(=C\C(=O)C(F)(F)F)Nc1cc(C)cc(C)c1`, inactive: 1.8%.
To `COc1ccc(-c2noc(-c3ccccc3C(=O)Nc3cccnc3)n2)cc1` belongs inactive: 4.91%; to `O=C(Nc1ccccc1)NC1(C(=O)NCCCN2CCOCC2)CCCCC1`, inactive: -2.64%; to `C[C@@H]1CN([C@@H](C)CO)C(=O)Cc2cc(NC(=O)CCCCCC(=O)Nc3ccccc3N)ccc2O[C@H]1CN(C)Cc1ccc(C(F)(F)F)cc1`, inactive: 16%.
With `CC(C)NC(=O)N(C)C[C@H]1Oc2ccc(N(C)C)cc2C(=O)N([C@@H](C)CO)C[C@H]1C`, the rescue activity (ATP increase) was inactive: 25%.
Consider `CCOC(=O)c1nn(C23CC4CC(CC(C4)C2)C3)c2c1C(=O)N(c1ccc(C)cc1)C2=O`, for which the rescue activity (ATP increase) is inactive: -3.76%.
To `O=C(O)Cc1c(O)ccc2ccccc12` belongs inactive: 11.7%.
With `C[C@H](CO)N1C[C@H](C)[C@H](CN(C)C(=O)Nc2cccc3ccccc23)Oc2ccc(NC(=O)Cn3cnnn3)cc2C1=O`, the rescue activity (ATP increase) is inactive: -0.568%.
The same measure for `O=S(=O)(c1ccccc1)N(CC(O)CN1CCCCC1)c1ccccc1` (stereo unspecified): inactive: -31.4%; for `C[C@H](CO)N1C[C@H](C)[C@@H](CN(C)CC2CCCCC2)OCCCC[C@H](C)Oc2ccc(NC(=O)Nc3ccc4c(c3)OCO4)cc2C1=O`: inactive: -46.2%.
To `O=S1(=O)C=C(N2CCCCC2)c2ccccc21` belongs inactive: 13.8%.
To `C[C@@H]1CCCCO[C@@H](CN(C)Cc2ccc(C(F)(F)F)cc2)[C@@H](C)CN([C@@H](C)CO)C(=O)c2cc(NC(=O)CCC(F)(F)F)ccc2O1` belongs inactive: 0.239%; to `COc1ccc(S(=O)(=O)Nc2ccc3c(c2)CC(=O)N([C@@H](C)CO)C[C@@H](C)[C@H](CN(C)Cc2ccc(C(F)(F)F)cc2)O3)cc1`, inactive: 14.4%.
Consider `CC1CCN(C(c2ccccc2)c2nnnn2C(C)(C)C)CC1` (stereo unspecified), for which the rescue activity (ATP increase) was inactive: 29.9%.
In the case of `N#Cc1ccc(Oc2ccc(/C=N/O)cn2)cc1`, the rescue activity (ATP increase) was inactive: 32.7%.
To `Cc1ccc(NC(=O)c2ccccc2N(C)S(C)(=O)=O)cc1C` belongs inactive: 3.5%; to `COc1ccc(C2CC(=O)Oc3c(C(CCN4CCCCC4)c4ccc(N(C)C)cc4)c(OC)cc(OC)c32)cc1` (stereo unspecified), inactive: -41.5%; to `COCCNCC(=O)NC12CC3CC(CC(C3)C1)C2`, inactive: 8.91%.
The same measure for `OC[C@@H]1[C@H]2c3ccccc3NC[C@H]2N1Cc1ccccc1Cl`: inactive: 13.3%.
For `C[C@@H]1CCCCO[C@@H](CN(C)S(=O)(=O)c2ccc(F)cc2)[C@@H](C)CN([C@H](C)CO)C(=O)c2cc(NC(=O)Nc3cccc4ccccc34)ccc2O1`, the rescue activity (ATP increase) is inactive: -3.78% [at 21 µM].
For `O=C1N(Cc2ccccc2F)c2ccccc2C12OCCCO2`, the rescue activity (ATP increase) was inactive: 16.2%.
Take `C[C@@H]1CCCCO[C@H](CN(C)S(=O)(=O)c2cccs2)[C@H](C)CN([C@@H](C)CO)C(=O)c2cc(NC(=O)Nc3ccc(F)cc3)ccc2O1`: the rescue activity (ATP increase) was inactive: 27.4%.
To `S=C(NCc1ccco1)N1CCN(C(c2ccccc2)c2ccccc2)CC1` belongs inactive: 36.2%.
The same measure for `COCCNC(=O)CN(C(=O)CCC(=O)Nc1nccs1)c1ccccc1OC`: inactive: 11.4%; for `O=C(CC12CC3CC(CC(C3)C1)C2)N1CCOCC1`: inactive: 35.2%; for `O=C(COc1ccc2ccccc2c1)NNC(=O)Cc1cccc2ccccc12`: inactive: -28.5%.
To `COc1ccc(NC(=O)Nc2ccc3c(c2)C(=O)N([C@H](C)CO)C[C@H](C)[C@H](CN(C)C(=O)C2CCCCC2)OCCCC[C@H](C)O3)cc1` belongs inactive: 8.91%; to `COc1ccc(S(=O)(=O)Nc2ccc3c(c2)CC(=O)N([C@@H](C)CO)C[C@H](C)[C@@H](CN(C)Cc2ccc(C(F)(F)F)cc2)O3)cc1`, inactive: 15.7%.
With `O=C(CCCCC(=O)NN=Cc1ccccc1O)NN=Cc1ccccc1O`, the rescue activity (ATP increase) is inactive: -17.5%.
As to `COc1ccccc1NC(=O)N1CCN(c2cccc(C(F)(F)F)c2)CC1`, the rescue activity (ATP increase) was inactive: 14.2%.
With `Cc1ccc(NC(=O)COc2ccc(S(=O)(=O)N3CCOCC3)cc2)cc1`, the rescue activity (ATP increase) is inactive: 7.96%.
Consider `OC(CSc1c(Cl)cccc1Cl)CN1CCN(c2ccccc2F)CC1` (stereo unspecified), for which the rescue activity (ATP increase) is inactive: 41.3%.
For the molecule `C[C@@H]1CN([C@@H](C)CO)C(=O)c2cc(NC(=O)CCCCCC(=O)Nc3ccccc3N)ccc2O[C@@H]1CN(C)C(=O)Nc1ccc(C(F)(F)F)cc1`, the rescue activity (ATP increase) was inactive: 12.9%.
For `O=C(CCCCCN1C(=O)c2ccccc2C1=O)Nc1ccc2c(c1)OCCO2`, the rescue activity (ATP increase) was inactive: 34.8%.
The same measure for `C[C@@H]1CN([C@@H](C)CO)C(=O)c2cc(NS(=O)(=O)c3ccc(Cl)cc3)ccc2O[C@@H](C)CCCCO[C@H]1CN(C)C(=O)Nc1cccc2ccccc12`: inactive: 13.2%; for `CCOc1ccc(C2SCC(=O)N2c2c(C)n(C)n(-c3ccccc3)c2=O)cc1` (stereo unspecified): inactive: 41.8%; for `C[C@@H]1CCCCO[C@H](CN(C)S(=O)(=O)c2cccs2)[C@H](C)CN([C@H](C)CO)C(=O)c2cc(NC(=O)Nc3ccc(F)cc3)ccc2O1`: inactive: 19.6%.
To `C[C@H](CO)N1C[C@H](C)[C@H](CN(C)S(=O)(=O)c2cccs2)OCCCC[C@H](C)Oc2ccc(NC(=O)Nc3ccc(F)cc3)cc2C1=O` belongs inactive: -10.5%.
Turning to `C[C@@H]1CN([C@H](C)CO)C(=O)c2cccc(NS(=O)(=O)c3cccs3)c2O[C@@H]1CN(C)Cc1ccc(Oc2ccccc2)cc1`, the rescue activity (ATP increase) was inactive: 37.4%.
The same measure for `C[C@@H]1CN([C@H](C)CO)C(=O)Cc2cc(NC(=O)Cc3cn(C)c4ccccc34)ccc2O[C@@H]1CN(C)Cc1ccc2c(c1)OCO2`: inactive: 23%; for `CN(C)CCN(C(=O)c1ccc2ccccc2c1)c1nc2c(F)cccc2s1`: inactive: -26.6%; for `Cc1ccc(CC(=O)c2ccc(Cl)cc2)cc1`: inactive: -1.44%.
The same measure for `C[C@H](CO)N1C[C@H](C)[C@@H](CN(C)Cc2ccc(-c3ccccc3)cc2)Oc2ccc(NC(=O)c3ccncc3)cc2CC1=O`: inactive: 18.2%; for `CCc1nnc(NC(=O)CSc2nnc(-c3ccc(NS(=O)(=O)c4ccccc4)cc3)o2)s1`: inactive: -82.1%; for `O=C(CN1CCOCC1)N1CCN(c2nnc(-c3ccccc3)c3ccccc23)CC1`: inactive: 11.1%.
As to `Cc1noc(C)c1NC(=O)Nc1ccc2c(c1)C(=O)N([C@@H](C)CO)C[C@@H](C)[C@@H](CN(C)S(=O)(=O)c1c(C)noc1C)OCCCC[C@@H](C)O2`, the rescue activity (ATP increase) was inactive: 28.3%.

Values taken from PubChem BioAssay AID624405 (Broad Institute, 2012).
